Patent publication US20230338454A1, “FORSYTHIA SUSPENSA COMPONENT AND OPTIONAL PANAX GINSENG COMPONENT AND THE APPLICATION” (priority 2020, published 2023)

Test system: HCMV AD169 strain
Assay: Inhibitory effect on HCMV in vitro (MEC, therapeutic index)
Type: cell-based, human cytomegalovirus
Experimental: Human embryonic lung fibroblast cell strain (purchased from Sino Best Biological Technology Co., Ltd.). The cells were cultured and subcultured according to the conventional method.
HCMV AD169 strain was purchased from American Type Culture Collection (ATCC).
Cells were inoculated in a 96-well plate, allowed to grow into monolayers, and inoculated with a virus challenge of 100 times TCD50. Starting from TD0, each drug was diluted stepwise according to 10-fold gradient to prepare 5 concentrations, with 4 wells set for each concentration. In addition, 4 wells of normal cell control and 4 wells of virus control were set.

SMILES | Therapeutic index (TD0/MEC)
Nc1nc(O)c2ncn(COC(CO)CO)c2n1 [Ganciclovir (GCV), Ganciclovir, reference compound] | 1
COc1cc(C2OCC3C(c4ccc5c(c4)OCO5)OCC23)ccc1OC1OC(C(=O)O)C(O)C(O)C1O [33, 34-methylenedioxy phillygenin-8-O-β-D-glucuronide] | 100
COc1cc(C2OCC3C(c4ccc(OC5OC(C(=O)O)C(O)C(O)C5O)c(OC)c4)OCC23)ccc1O [33-Hydroxy-phillygenin glucuronide, 33-hydroxy phillygenin-8-O-β-D-glucuronide] | 100
COc1ccc(C2OCC3C(c4ccc(OC5OC(C(=O)O)C(O)C(O)C5O)c(O)c4)OCC23)cc1OC [9-Hydroxy-phillygenin glucuronide, 9-hydroxy phillygenin-8-O-β-D-glucuronide] | 100
